These are yes or no findings as the source states them, for the method shown. Binding seen in cells or lysates may run through a third protein. Some binding calls cover weakened binding; strength is not graded here. For some of these results: Where a sequence is shown, tags or fusion partners need not be part of it.

The chains behind the UniProt entries cited, without tags or fusion partners. Where a name states a change or a piece, a line headed by the entry shows the natural chain unless it says otherwise.
UniProt Q9H6L5: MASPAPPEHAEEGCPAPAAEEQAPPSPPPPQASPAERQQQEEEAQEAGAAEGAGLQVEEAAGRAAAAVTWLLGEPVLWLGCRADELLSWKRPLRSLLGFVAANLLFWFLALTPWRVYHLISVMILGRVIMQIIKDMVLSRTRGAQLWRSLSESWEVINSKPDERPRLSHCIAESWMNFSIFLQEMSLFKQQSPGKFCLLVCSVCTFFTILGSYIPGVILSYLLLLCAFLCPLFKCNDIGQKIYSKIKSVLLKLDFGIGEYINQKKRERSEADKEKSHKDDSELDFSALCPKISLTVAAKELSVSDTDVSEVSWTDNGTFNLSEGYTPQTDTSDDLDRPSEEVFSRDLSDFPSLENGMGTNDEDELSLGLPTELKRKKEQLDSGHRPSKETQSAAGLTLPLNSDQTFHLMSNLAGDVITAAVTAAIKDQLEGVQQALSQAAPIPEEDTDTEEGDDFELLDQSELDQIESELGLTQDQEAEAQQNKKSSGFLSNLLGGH

Consider four molecules from PMC9535016.

In experiment [1] the target is T1, HA-tagged O-GlcNAc transferase (OGT) (human (from the printed RefSeq NM_181672)) (UniProt O15294).
T1 sequence: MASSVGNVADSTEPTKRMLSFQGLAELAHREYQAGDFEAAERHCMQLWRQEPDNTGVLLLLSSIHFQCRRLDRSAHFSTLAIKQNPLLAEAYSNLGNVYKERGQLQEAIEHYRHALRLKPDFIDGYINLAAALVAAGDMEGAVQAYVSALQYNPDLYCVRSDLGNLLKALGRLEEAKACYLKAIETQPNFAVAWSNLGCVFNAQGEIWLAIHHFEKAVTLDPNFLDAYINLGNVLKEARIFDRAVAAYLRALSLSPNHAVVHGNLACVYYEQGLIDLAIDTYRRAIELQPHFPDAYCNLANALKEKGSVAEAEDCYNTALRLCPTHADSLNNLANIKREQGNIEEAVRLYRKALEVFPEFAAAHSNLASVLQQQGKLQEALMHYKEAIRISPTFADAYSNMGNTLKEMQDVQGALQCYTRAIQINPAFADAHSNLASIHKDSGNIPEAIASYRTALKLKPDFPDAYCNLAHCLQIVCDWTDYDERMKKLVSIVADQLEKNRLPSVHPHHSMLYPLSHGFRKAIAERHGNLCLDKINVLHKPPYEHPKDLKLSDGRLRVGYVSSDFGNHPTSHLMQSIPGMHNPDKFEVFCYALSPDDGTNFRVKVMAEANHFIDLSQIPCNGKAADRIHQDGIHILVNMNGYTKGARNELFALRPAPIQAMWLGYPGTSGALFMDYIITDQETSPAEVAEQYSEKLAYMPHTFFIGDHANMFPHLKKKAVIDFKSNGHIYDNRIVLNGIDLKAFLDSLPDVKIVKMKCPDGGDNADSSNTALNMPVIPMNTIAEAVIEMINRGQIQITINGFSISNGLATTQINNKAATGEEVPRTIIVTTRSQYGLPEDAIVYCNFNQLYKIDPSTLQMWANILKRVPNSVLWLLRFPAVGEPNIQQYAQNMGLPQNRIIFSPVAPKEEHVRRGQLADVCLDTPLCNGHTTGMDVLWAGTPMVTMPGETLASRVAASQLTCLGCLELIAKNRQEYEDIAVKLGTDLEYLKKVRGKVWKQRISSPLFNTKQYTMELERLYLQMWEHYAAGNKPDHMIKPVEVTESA
Kind of experiment: co-IP; human NP cells cotransfected with HA-OGT and Flag-FAM134B; whole-cell lysates immunoprecipitated with anti-Flag or anti-HA antibodies, blotted with anti-Flag and anti-HA.

Experiment [2] deals with T2, endogenous O-GlcNAc transferase (OGT) (human (endogenous in NP cells)) (UniProt O15294).
T2 sequence: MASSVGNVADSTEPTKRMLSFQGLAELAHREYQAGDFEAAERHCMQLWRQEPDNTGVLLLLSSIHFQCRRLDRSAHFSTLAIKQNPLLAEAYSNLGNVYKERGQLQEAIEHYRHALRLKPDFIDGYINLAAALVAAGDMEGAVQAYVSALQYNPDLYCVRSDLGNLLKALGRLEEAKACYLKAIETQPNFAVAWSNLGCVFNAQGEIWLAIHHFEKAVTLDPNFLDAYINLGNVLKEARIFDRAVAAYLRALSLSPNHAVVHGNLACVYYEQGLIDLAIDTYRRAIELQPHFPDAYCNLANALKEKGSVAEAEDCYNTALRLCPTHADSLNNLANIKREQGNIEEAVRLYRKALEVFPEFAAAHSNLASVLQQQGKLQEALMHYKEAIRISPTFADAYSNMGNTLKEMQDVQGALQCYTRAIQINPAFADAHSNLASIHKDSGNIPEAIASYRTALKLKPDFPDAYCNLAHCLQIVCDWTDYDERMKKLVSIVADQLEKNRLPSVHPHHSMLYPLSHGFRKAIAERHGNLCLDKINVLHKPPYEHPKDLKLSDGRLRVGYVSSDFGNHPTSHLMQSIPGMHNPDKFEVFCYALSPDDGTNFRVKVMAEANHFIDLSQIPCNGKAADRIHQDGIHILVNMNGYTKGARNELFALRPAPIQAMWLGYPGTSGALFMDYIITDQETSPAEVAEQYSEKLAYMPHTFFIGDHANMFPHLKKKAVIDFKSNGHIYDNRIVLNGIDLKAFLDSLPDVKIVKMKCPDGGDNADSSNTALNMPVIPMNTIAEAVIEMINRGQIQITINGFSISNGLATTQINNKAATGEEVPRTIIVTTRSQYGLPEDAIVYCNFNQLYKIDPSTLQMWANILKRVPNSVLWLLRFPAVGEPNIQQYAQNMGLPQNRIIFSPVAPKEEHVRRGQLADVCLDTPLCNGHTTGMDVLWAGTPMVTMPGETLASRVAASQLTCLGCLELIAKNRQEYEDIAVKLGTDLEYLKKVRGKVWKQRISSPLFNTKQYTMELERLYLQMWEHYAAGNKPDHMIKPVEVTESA
The experiment in a line: co-IP; endogenous proteins in human NP cells, control or nutrient deprivation (ND); reciprocal immunoprecipitation with anti-OGT and anti-FAM134B antibodies, blotted with anti-OGT and anti-FAM134B.

The target in experiment [3] is Flag-tagged FAM134B (family with sequence similarity 134, member B) (human (from the printed RefSeq NM_001034850)) (UniProt Q9H6L5). Kind of experiment: co-IP; human NP cells cotransfected with HA-OGT and Flag-FAM134B; whole-cell lysates immunoprecipitated with anti-Flag or anti-HA antibodies, blotted with anti-Flag and anti-HA.
Experiment [4] has as its target endogenous FAM134B (human (endogenous in NP cells)) (UniProt Q9H6L5). The experiment in a line: co-IP; endogenous proteins in human NP cells, control or nutrient deprivation (ND); reciprocal immunoprecipitation with anti-OGT and anti-FAM134B antibodies, blotted with anti-OGT and anti-FAM134B.

Consider “Flag-tagged FAM134B (family with sequence similarity 134, member B) (from UniProt Q9H6L5-1 1-497)”, for which, in experiment [1], the binding result is on record as “binds”.

Turning to “endogenous FAM134B (from UniProt Q9H6L5 1-497)”, in experiment [2], the binding result is given as “binds”.

B1: HA-tagged O-GlcNAc transferase (OGT) (enzyme, UniProt O15294-1 1-1046)
chain: MASSVGNVADSTEPTKRMLSFQGLAELAHREYQAGDFEAAERHCMQLWRQEPDNTGVLLLLSSIHFQCRRLDRSAHFSTLAIKQNPLLAEAYSNLGNVYKERGQLQEAIEHYRHALRLKPDFIDGYINLAAALVAAGDMEGAVQAYVSALQYNPDLYCVRSDLGNLLKALGRLEEAKACYLKAIETQPNFAVAWSNLGCVFNAQGEIWLAIHHFEKAVTLDPNFLDAYINLGNVLKEARIFDRAVAAYLRALSLSPNHAVVHGNLACVYYEQGLIDLAIDTYRRAIELQPHFPDAYCNLANALKEKGSVAEAEDCYNTALRLCPTHADSLNNLANIKREQGNIEEAVRLYRKALEVFPEFAAAHSNLASVLQQQGKLQEALMHYKEAIRISPTFADAYSNMGNTLKEMQDVQGALQCYTRAIQINPAFADAHSNLASIHKDSGNIPEAIASYRTALKLKPDFPDAYCNLAHCLQIVCDWTDYDERMKKLVSIVADQLEKNRLPSVHPHHSMLYPLSHGFRKAIAERHGNLCLDKINVLHKPPYEHPKDLKLSDGRLRVGYVSSDFGNHPTSHLMQSIPGMHNPDKFEVFCYALSPDDGTNFRVKVMAEANHFIDLSQIPCNGKAADRIHQDGIHILVNMNGYTKGARNELFALRPAPIQAMWLGYPGTSGALFMDYIITDQETSPAEVAEQYSEKLAYMPHTFFIGDHANMFPHLKKKAVIDFKSNGHIYDNRIVLNGIDLKAFLDSLPDVKIVKMKCPDGGDNADSSNTALNMPVIPMNTIAEAVIEMINRGQIQITINGFSISNGLATTQINNKAATGEEVPRTIIVTTRSQYGLPEDAIVYCNFNQLYKIDPSTLQMWANILKRVPNSVLWLLRFPAVGEPNIQQYAQNMGLPQNRIIFSPVAPKEEHVRRGQLADVCLDTPLCNGHTTGMDVLWAGTPMVTMPGETLASRVAASQLTCLGCLELIAKNRQEYEDIAVKLGTDLEYLKKVRGKVWKQRISSPLFNTKQYTMELERLYLQMWEHYAAGNKPDHMIKPVEVTESA
As to B1, the binding entry in experiment [3] is reported as “binds”.

B2: endogenous O-GlcNAc transferase (OGT) (enzyme, UniProt O15294 1-1046)
chain: MASSVGNVADSTEPTKRMLSFQGLAELAHREYQAGDFEAAERHCMQLWRQEPDNTGVLLLLSSIHFQCRRLDRSAHFSTLAIKQNPLLAEAYSNLGNVYKERGQLQEAIEHYRHALRLKPDFIDGYINLAAALVAAGDMEGAVQAYVSALQYNPDLYCVRSDLGNLLKALGRLEEAKACYLKAIETQPNFAVAWSNLGCVFNAQGEIWLAIHHFEKAVTLDPNFLDAYINLGNVLKEARIFDRAVAAYLRALSLSPNHAVVHGNLACVYYEQGLIDLAIDTYRRAIELQPHFPDAYCNLANALKEKGSVAEAEDCYNTALRLCPTHADSLNNLANIKREQGNIEEAVRLYRKALEVFPEFAAAHSNLASVLQQQGKLQEALMHYKEAIRISPTFADAYSNMGNTLKEMQDVQGALQCYTRAIQINPAFADAHSNLASIHKDSGNIPEAIASYRTALKLKPDFPDAYCNLAHCLQIVCDWTDYDERMKKLVSIVADQLEKNRLPSVHPHHSMLYPLSHGFRKAIAERHGNLCLDKINVLHKPPYEHPKDLKLSDGRLRVGYVSSDFGNHPTSHLMQSIPGMHNPDKFEVFCYALSPDDGTNFRVKVMAEANHFIDLSQIPCNGKAADRIHQDGIHILVNMNGYTKGARNELFALRPAPIQAMWLGYPGTSGALFMDYIITDQETSPAEVAEQYSEKLAYMPHTFFIGDHANMFPHLKKKAVIDFKSNGHIYDNRIVLNGIDLKAFLDSLPDVKIVKMKCPDGGDNADSSNTALNMPVIPMNTIAEAVIEMINRGQIQITINGFSISNGLATTQINNKAATGEEVPRTIIVTTRSQYGLPEDAIVYCNFNQLYKIDPSTLQMWANILKRVPNSVLWLLRFPAVGEPNIQQYAQNMGLPQNRIIFSPVAPKEEHVRRGQLADVCLDTPLCNGHTTGMDVLWAGTPMVTMPGETLASRVAASQLTCLGCLELIAKNRQEYEDIAVKLGTDLEYLKKVRGKVWKQRISSPLFNTKQYTMELERLYLQMWEHYAAGNKPDHMIKPVEVTESA
In the case of B2, the binding entry in experiment [4] is given as “binds”.
